Test [1] addresses T1, Flag-CASTOR1 WT (human cytosolic arginine sensor for mTORC1 subunit 1) (human) (UniProt Q8WTX7).
T1 sequence: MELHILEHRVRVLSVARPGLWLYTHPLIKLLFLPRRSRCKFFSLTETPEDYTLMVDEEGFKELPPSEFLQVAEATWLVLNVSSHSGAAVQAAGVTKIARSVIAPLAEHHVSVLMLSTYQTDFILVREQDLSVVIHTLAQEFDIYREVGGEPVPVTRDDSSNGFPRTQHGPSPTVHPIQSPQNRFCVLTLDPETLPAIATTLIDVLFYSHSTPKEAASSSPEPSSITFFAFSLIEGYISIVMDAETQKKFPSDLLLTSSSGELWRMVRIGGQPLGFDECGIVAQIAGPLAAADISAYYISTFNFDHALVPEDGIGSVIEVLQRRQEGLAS
Briefly: co-IP; CASTOR1 with AKT1, AKT1 domains or endogenous AKT; cells not given; lysis in 50 mM Tris-HCl pH 7.4, 150 mM NaCl, 1 mM EDTA, 1% Triton X-100; antibody-conjugated agarose beads at 4 °C overnight; immunoblot.

Chains of the proteins cited; added tags and fusions are not shown. Lines headed by an entry give the natural chain unless they say otherwise; changes in a name come on top.
UniProt P31749: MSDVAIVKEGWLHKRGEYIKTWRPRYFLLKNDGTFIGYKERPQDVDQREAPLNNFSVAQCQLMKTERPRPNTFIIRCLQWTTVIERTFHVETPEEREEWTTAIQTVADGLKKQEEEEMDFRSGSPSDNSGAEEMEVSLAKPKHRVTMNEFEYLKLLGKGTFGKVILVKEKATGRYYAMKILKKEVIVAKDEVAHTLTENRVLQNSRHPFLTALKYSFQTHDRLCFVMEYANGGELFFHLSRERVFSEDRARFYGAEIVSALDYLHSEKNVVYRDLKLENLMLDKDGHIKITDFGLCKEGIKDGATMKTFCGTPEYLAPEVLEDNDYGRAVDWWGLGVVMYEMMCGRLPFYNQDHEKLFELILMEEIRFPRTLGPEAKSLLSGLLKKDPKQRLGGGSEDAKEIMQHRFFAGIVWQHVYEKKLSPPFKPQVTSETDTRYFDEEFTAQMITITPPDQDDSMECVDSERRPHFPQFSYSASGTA

The target of test [2] is T2, Flag-CASTOR1 S14D (human) (UniProt Q8WTX7).
T2 sequence: T1 sequence with S14D
The test is described as above.

Numbering of substitutions follows the chain as printed. No constants are given. Whether binding was seen depends on the method and setting. Binding seen in cells or lysates may run through a third protein. Some entries that bind do so weakly or less than the wild type. Sequences can lack the tags named with a protein.

We go through 2 substances from article PMC7887217.

Consider “AKT1 kinase domain (HA-AKT1-120-433aa) (from UniProt P31749 120-433) (domain or fragment)”, for which, in test [1], the binding entry is “binds”.
In the case of “ectopically expressed AKT1 (from UniProt P31749 1-480) (enzyme)”, the binding result in test [2] and in test [1] was “binds” in each case.
